{"source": "PubChem BioAssay AID1347423", "about": "(Functional Genomics Laboratory (NCATS/FGL), 2020)", "note": "The whole screen tested about 52,000 sequences, of which about 210 (0.4%) were called active.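 The calls were made as follows: active = gene whose silencing raises cell survival under the drug, median off-target-corrected z-score across its silencing RNAs 2 or more; inactive = the rest.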 Some of the results follow."}
{"experiment": "Resistance to Poly (ADP-Ribose) Polymerase inhibitor: Gene Identification via Genome-wide siRNA Screen", "settings": "mouse BRCA2 R2336H ES cells, olaparib, CellTiter-Glo viability; stronger effect = higher value", "method_in_brief": "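Mouse BRCA2 R2336H ES cells were reverse-transfected with siRNA (20 nM final), treated at 48 h with 500 nM olaparib, and read by CellTiter-Glo after 72 h. Scores: MAD-based z per siRNA, median per gene, seed off-target correction.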"}
{"sequence": "GGUUAUUAAGAGCACUUUCTT against Catsper3", "z-score": "inactive: -0.553"}
{"sequence": "CCACCCAACAUCUAUGAGGTT against 1700037C18Rik", "z-score": "inactive: 1.11"}
{"sequence": "GCUUGCCUAAUGAAACCUUTT against Gm964", "z-score": "inactive: 0.504"}
{"sequence": "GGACAACAUGAACUGUCAGTT against Snrpd3", "z-score": "inactive: -2.78"}
{"sequence": "CCUAUUCUUAACACCCUUGTT against Trfr2", "z-score": "inactive: -0.465"}
{"sequence": "GGUCUCCUGUGGAAAUAUCTT against Olfr659", "z-score": "inactive: 0.454"}
{"sequence": "GGAAACUGUGUCAUUAUUATT against Arhgap9", "z-score": "inactive: -0.326"}
{"sequence": "CCGUUGUGAACUACAAGCUTT against 2700038N03Rik", "z-score": "inactive: 1.53"}
{"sequence": "GGUCUCUUUCAUGCUCGCATT against E030025L21Rik", "z-score": "inactive: 1.64"}
{"sequence": "GGCCUCUCAUUUCUAGUCATT against Kdelr2", "z-score": "inactive: 0.95"}
{"sequence": "GGUGAUGCUUCUUGGAGACTT against Rab37", "z-score": "inactive: 0.0636"}
{"sequence": "GCAGUACGGGACAUCCACUTT against Bing4", "z-score": "inactive: -0.538"}
{"sequence": "GGCUAGAGCAUCAAGGAAUTT against Vps26", "z-score": "inactive: 0.604"}
{"sequence": "CCCACUUCGAGAGAAAAACTT against Pafah1b3", "z-score": "inactive: 1.21"}
{"sequence": "GGUAAGAAGACAAACACUCTT against Ly6g6d", "z-score": "inactive: -0.432"}
{"sequence": "GGUCUACGGCACCUUCUAUTT against Bsnd", "z-score": "inactive: -0.485"}
{"sequence": "GGAAUAUGCCCAAGUUUUUTT against Catna1", "z-score": "inactive: -1.86"}
{"sequence": "GGCUCUGUCCAACAUGAUGTT against Tnnt2", "z-score": "inactive: 0.34"}
{"sequence": "GCCAAGCUCGCCAAGAUUATT against P4ha2", "z-score": "inactive: 0.0302"}
{"sequence": "CCAGAGAUUCCAACUUAAATT against C130096D04Rik", "z-score": "inactive: -0.44"}
{"sequence": "GCGGAAGUAUUACCAAGACTT against 1700001C02Rik", "z-score": "inactive: -2.49"}
{"sequence": "GGAGGAAUCUUGGGUCUGATT against LOC237891", "z-score": "inactive: -0.422"}
{"sequence": "GGUCAAUUCCCAUACCCUGTT against Trfr2", "z-score": "inactive: 0.815"}
{"sequence": "CCUACACAUACAUUGAUGATT against Eppk1", "z-score": "inactive: 0.563"}
{"sequence": "GCCUAAAUGAUGGUGCUUGTT against Klf4", "z-score": "inactive: 5.17"}
{"sequence": "CGAAGUAAAUGUGAAUAGATT against 2610312E17Rik", "z-score": "inactive: -0.714"}
{"sequence": "GGUGUUUAAACAGCACUGCTT against ORF63", "z-score": "inactive: 0.162"}
{"sequence": "GCUCAACUCAAAGCCUGUATT against 2310061N23Rik", "z-score": "inactive: -1.96"}
{"sequence": "GGGUUUCCAAGACAGACUATT against Il12rb1", "z-score": "inactive: -2.13"}
{"sequence": "GGACAUGAGGACACCAUUGTT against Saa1", "z-score": "inactive: -0.33"}
{"sequence": "CCAUUGUACAGAAAAACACTT against 3110057O12Rik", "z-score": "inactive: -0.504"}
{"sequence": "CGGUUAUCUAGACUUAAAATT against BC029103", "z-score": "inactive: -0.231"}
{"sequence": "GAUUUGGUGUCUGCCGAGATT against ORF31", "z-score": "inactive: 0.792"}
{"sequence": "GGAAAAAGUUGGCAUCAUUTT against Zswim4", "z-score": "inactive: -0.512"}
{"sequence": "GGAAAGCCAGAAAAUUCACTT against Ian6", "z-score": "inactive: 1.13"}
{"sequence": "GGACCUUCUAUUAUUUGUATT against 5330408M12Rik", "z-score": "inactive: 1.2"}
{"sequence": "GGAUGAGUUUUUAAAGUCATT against Otop2", "z-score": "inactive: -1"}
{"sequence": "GGCUUUCCUCCAGAUAAACTT against Il6st", "z-score": "inactive: 0.443"}
{"sequence": "CGCUUAUCAUGAACAAAGATT against C8b", "z-score": "inactive: -0.614"}
{"sequence": "GGUUUUGUACUUUCAUAGATT against 4632417K18Rik", "z-score": "inactive: 0.686"}
{"sequence": "GGUACCAAUUGAAGAUAUATT against 9030406N13Rik", "z-score": "inactive: 0.558"}
{"sequence": "CCACACAAUCCAGUUAUAATT against 1700055D18Rik", "z-score": "inactive: -0.192"}
{"sequence": "GGCCAAAAUCGGGCAAGAATT against 1110028N05Rik", "z-score": "inactive: -1.49"}
{"sequence": "GCAGUGGUAGAUCUUAGAGTT against Lmcd1", "z-score": "inactive: -0.326"}
{"sequence": "GGAAUGCAGCCAUCCUAUCTT against Mia", "z-score": "inactive: 0.193"}
{"sequence": "GGUUGAUCGUGUCAUGUAGTT against 4933430F16Rik", "z-score": "inactive: 0.81"}
{"sequence": "CCUAUAACAUCCACCUUCATT against D17Wsu94e", "z-score": "inactive: -1.66"}
{"sequence": "GGGCAAACUCUAGAGCUACTT against Pdgfrl", "z-score": "inactive: 0.782"}
{"sequence": "CGGGAUUAAUCUUUCUGGGTT against Clec2", "z-score": "inactive: 0.0652"}
{"sequence": "GGAAUUGAGACCCAAUAUUTT against Cnot7", "z-score": "inactive: -0.494"}
{"sequence": "GCACAGUUGGCAACCUUUATT against S100a9", "z-score": "inactive: -1.07"}
{"sequence": "GGUGACAUUUGAGAUCUAUTT against Plcg2", "z-score": "inactive: -0.97"}
